Data from US9637723B2, “Generation of functional and durable endothelial cells from human amniotic fluid-derived cells” (Cornell University, priority 2012, dated 2017).
For at least one compound, name, drawing or mass did not settle the structure.

Tested on: iETV2 (inducible ETV2)
Assay: Western blot for iETV2 suppression (Tet-off) in iETV2/FLI1/ERG1 transduced ACs
Format: cell-based, human
Details: Doxycycline 2 μg/ml from day 14

For C[C@H]1c2cccc(O)c2C(=O)C2=C(O)[C@]3(O)C(=O)C(C(N)=O)=C(O)[C@@H](N(C)C)[C@@H]3[C@@H](O)[C@@H]21 [Doxycycline], the iETV2 expression was “silenced”.
